Source: publication PMC3555845
No constants are given. Whether binding was seen depends on the method and setting. Binding seen in cells or lysates may run through a third protein. A result given as binding can be weak or reduced; the word gives no strength.

Target: T1, USH1G protein SANS (scaffold protein containing ankyrin repeats and SAM domain) (UniProt Q495M9)
T1 sequence: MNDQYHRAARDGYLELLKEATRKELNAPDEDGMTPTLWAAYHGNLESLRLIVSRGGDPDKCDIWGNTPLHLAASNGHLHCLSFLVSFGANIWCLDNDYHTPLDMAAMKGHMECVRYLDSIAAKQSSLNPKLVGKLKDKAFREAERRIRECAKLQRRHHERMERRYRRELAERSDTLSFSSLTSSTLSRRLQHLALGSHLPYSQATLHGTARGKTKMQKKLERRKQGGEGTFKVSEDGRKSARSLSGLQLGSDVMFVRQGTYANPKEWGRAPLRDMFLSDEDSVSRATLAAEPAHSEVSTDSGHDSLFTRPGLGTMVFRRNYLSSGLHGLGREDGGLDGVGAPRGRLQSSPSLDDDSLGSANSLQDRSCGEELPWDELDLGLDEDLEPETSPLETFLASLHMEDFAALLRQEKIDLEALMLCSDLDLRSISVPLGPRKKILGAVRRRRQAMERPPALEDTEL
Assay: pull-down; GST pull-down; which partner carried GST is not told

With “cytoplasmic dynein intermediate chain (cDIC74)” the binding was “binds”.
